In paper doi:10.1101/2024.11.26.625568:
No constants are given. Whether binding was seen depends on the method and setting.

Target: NuMA MTBD1 (human) (UniProt Q14980)
Assay: mass photometry; single protein diluted to 5-20 nM in 50 mM HEPES pH 7.4, 150 mM NaCl, 1 mM EGTA, 10% glycerol; TwoMP mass photometer; both purified

B1: NuMA MTBD1 (domain or fragment, UniProt Q14980 1811-1985)
chain: TTQIINITMTKKLDVEEPDSANSSFYSTRSAPASQASLRATSSTQSLARLGSPDYGNSALLSLPGYRPTTRSSARRSQAGVSSGAPPGRNSFYMGTCQDEPEQLDDWNRIAELQQRNRVCPPHLKTCYPLESRPSLSLGTITDEEMKTGDPQETLRRASMQPIQIAEGTGITTRQ
  binding: no binding (tested: 5–20 nM)
